# Values joined by “and” are separate entries in the source; they are usually repeats but may differ in a detail not shown here. Identical values can stand only once. Counter-ions that a name gives are not always drawn. ± gives the standard deviation of the averaged measurements. The list shows a part of the results. Baselines shift from plate to plate; read single values as rough.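 Assay uses culture-activated primary human stellate myofibroblasts; lipid droplet recovery indicates inactivation. Measured: proportion of Hoechst-counted cells over a plate-specific Bodipy cutoff, duplicate wells, DMSO and nortriptyline as per-plate negative and positive controls. A hit scores, control-normalized, above the plate's top-tenth-percentile nortriptyline wells or ranks among its three best wells. Final well concentrations not reported.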
# System: primary human hepatic stellate cells (donor 1)
# Test: percent Bodipy-positive cells; higher = more lipid droplet accumulation
# Details: 48 h
# [1] = library stock concentration: 3.33 mM
# [2] = library stock concentration: 10 mM
# [3] = library stock concentration: 1 mM
# [4] = library stock concentration: 3 mM
smiles,measurement,setting,value
O=c1c2ccccc2oc2ccccc12 [Xanthone],percent Bodipy-positive cells,[1],12 ± 4.4%
same,percent Bodipy-positive cells,[2],29.2 ± 19%
CC1(C2CCCC2)Cc2cc(OCC(=O)O)c(Cl)c(Cl)c2C1=O (stereo unspecified),percent Bodipy-positive cells,[2],38.8 ± 5.5%
same,percent Bodipy-positive cells,library stock concentration: 14 mM,10.8 ± 2.1%
Clc1ccc(COC(Cn2ccnc2)c2ccc(Cl)cc2Cl)c(Cl)c1 (stereo unspecified) [Miconazole],percent Bodipy-positive cells,,46.4 ± 10%
same,percent Bodipy-positive cells,[1],4.37 ± 0.71%
same,percent Bodipy-positive cells,library stock concentration: 4.8 mM,16.1 ± 6.1%
same,percent Bodipy-positive cells,[2],49.1 ± 20%
Clc1ccc(COC(Cn2ccnc2)c2ccc(Cl)cc2Cl)c(Cl)c1 (stereo unspecified) [Miconazole nitrate],percent Bodipy-positive cells,[2],9.06 ± 2.9%
Clc1ccc(COC(Cn2ccnc2)c2ccc(Cl)cc2Cl)c(Cl)c1 (stereo unspecified) [Miconazole Nitrate],percent Bodipy-positive cells,[1],6.87 ± 1.8%
same,percent Bodipy-positive cells,[2],75.1 ± 4.4%
Clc1ccc(COC(Cn2ccnc2)c2ccc(Cl)cc2Cl)c(Cl)c1 (stereo unspecified),percent Bodipy-positive cells,[2],96.71 ± 0.42%
NCC=CC(=O)O (stereo in doubt) [cis-4-Aminocrotonic acid],percent Bodipy-positive cells,[2],37.5 ± 4.8%
CC[C@@H]1C(=O)N(C)c2cnc(Nc3ccc(C(=O)N[C@H]4CC[C@H](N5CCN(CC6CC6)CC5)CC4)cc3OC)nc2N1C(C)C [Volasertib (BI 6727)],percent Bodipy-positive cells,[1],95.1 ± 1.5%
same,percent Bodipy-positive cells,[2],100%
CC(C)[C@@H](O)CC[C@@H](C)[C@H]1CC[C@H]2[C@@H]3CC=C4C[C@@H](O)CC[C@]4(C)[C@H]3CC[C@]12C [24(S)-hydroxycholesterol],percent Bodipy-positive cells,library stock concentration: 12.4 mM,13.4 ± 0.15%
Cc1cc(=O)n(-c2ccccc2)n1C [Antipyrine],percent Bodipy-positive cells,,21.8 ± 2.5%
same,percent Bodipy-positive cells,[1],15 ± 6.1%
same,percent Bodipy-positive cells,[2],26.8% and 11.3%
same,percent Bodipy-positive cells,library stock concentration: 10.6 mM,3.63 ± 1.6%
CC(=O)[C@H]1CC[C@H]2[C@@H]3CC=C4C[C@@H](OS(=O)(=O)O)CC[C@]4(C)[C@H]3CC[C@]12C [Pregnenolone sulfate sodium],percent Bodipy-positive cells,[2],10.4 ± 1.4%
CCCN(CCc1cccs1)[C@H]1CCc2c(O)cccc2C1 [Rotigotine],percent Bodipy-positive cells,[1],27.4 ± 10%
same,percent Bodipy-positive cells,[2],83.5 ± 5.8%
CCCc1c(OCCCCc2nnn[nH]2)ccc(C(C)=O)c1O,percent Bodipy-positive cells,[3],8.02% and 23.1%
same,percent Bodipy-positive cells,[2],6.4 ± 3%
CS(=O)(=O)O.Cc1ccc(NC(=O)c2ccc(CN3CCN(C)CC3)cc2)cc1Nc1nccc(-c2cccnc2)n1 [Imatinib Mesylate (STI571)],percent Bodipy-positive cells,[2],98.15 ± 0.96%
CC1CCc2c(N3CCC(O)CC3)c(F)cc3c(=O)c(C(=O)O)cn1c23 (stereo unspecified) [Nadifloxacin],percent Bodipy-positive cells,,5.99 ± 2.6%
same,percent Bodipy-positive cells,[1],5.13 ± 1%
same,percent Bodipy-positive cells,[2],12.2 ± 0.2%
CCCCCC(=O)/C=C/C=O [4-oxo-2-Nonenal],percent Bodipy-positive cells,[3],13.2 ± 0.18%
CCCCCCCCCCCCCCCC(=O)OC[C@H](COP(=O)([O-])OCC[N+](C)(C)C)OC(=O)CCCCCCCC(=O)/C=C/C(=O)O,percent Bodipy-positive cells,[3],4.56 ± 2.4%
CCCCC[C@H](O)/C=C/[C@@H]1[C@@H](CCCCCCC(=O)O)[C@H](O)C[C@@H]1O [11.beta.-Prostaglandin F1.beta.],percent Bodipy-positive cells,[3],18.4 ± 1.8%
N=C1C=CC(=C(c2ccc(N)cc2)c2ccc(N)cc2)C=C1 [Pararosaniline pamoate],percent Bodipy-positive cells,[4],57.9 ± 0.84%
same,percent Bodipy-positive cells,[2],68.9 ± 2.6%
CCCCCC[C@@H]([C@@H](C)O)n1cnc2c(N)ncnc21 (racemic),percent Bodipy-positive cells,library stock concentration: 18 mM,22 ± 2.7%
O=C1Cc2cc(CCN3CCN(c4nsc5ccccc45)CC3)c(Cl)cc2N1 [Ziprasidone hydrochloride monohydrate],percent Bodipy-positive cells,[2],45.4 ± 11%
O=C1Cc2cc(CCN3CCN(c4nsc5ccccc45)CC3)c(Cl)cc2N1 [Ziprasidone HCl],percent Bodipy-positive cells,[1],27.2 ± 1.4%
same,percent Bodipy-positive cells,[2],22 ± 6.9%
O=C1Cc2cc(CCN3CCN(c4nsc5ccccc45)CC3)c(Cl)cc2N1,percent Bodipy-positive cells,[2],58.9 ± 11%
CC(C)/N=c1\cc2n(-c3ccc(Cl)cc3)c3ccccc3nc-2cc1Nc1ccc(Cl)cc1,percent Bodipy-positive cells,[2],7.71 ± 6.2%
CC(C)/N=c1\cc2n(-c3ccc(Cl)cc3)c3ccccc3nc-2cc1Nc1ccc(Cl)cc1 [Clofazimine],percent Bodipy-positive cells,,14.2 ± 2.6%
same,percent Bodipy-positive cells,[1],1.73 ± 2%
same,percent Bodipy-positive cells,[2],2.45 ± 2.4%
CN(C)CCC(c1ccc(Br)cc1)c1ccccn1.O=C(O)/C=C\C(=O)O (stereo unspecified),percent Bodipy-positive cells,[2],92 ± 3.9%
C[N+](C)(C)CCCCCNCC12CC3CC(CC(C3)C1)C2,percent Bodipy-positive cells,[2],10.8 ± 0.53%
CCN[C@H]1C[C@H](C)S(=O)(=O)c2sc(S(N)(=O)=O)cc21 [Dorzolamide hydrochloride],percent Bodipy-positive cells,,7.43 ± 0.78%
CCN[C@H]1C[C@H](C)S(=O)(=O)c2sc(S(N)(=O)=O)cc21 [Dorzolamide],percent Bodipy-positive cells,library stock concentration: 6.2 mM,9.39 ± 1.1%
N[C@H](CO)C(=O)O [D-Serine],percent Bodipy-positive cells,[2],12.3 ± 3.3%
CC(C)(S)C(N)C(=O)O (racemic),percent Bodipy-positive cells,[2],24.1 ± 2.8%
NC(Cc1cccc(-c2ccccc2CP(=O)(O)O)c1)C(=O)O (stereo not drawn) [Phenylbenzene-omega-phosphono-alpha-amino acid],percent Bodipy-positive cells,[2],16.3 ± 1.5%
O=S(=O)(c1cccc2cnccc12)N1CCNCC1,percent Bodipy-positive cells,[2],57.4 ± 3.5%
CC(=O)N(O)CCCCCNC(=O)CCC(=O)N(O)CCCCCNC(=O)CCC(=O)N(O)CCCCCN [Deferoxamine mesylate],percent Bodipy-positive cells,,13 ± 12%
same,percent Bodipy-positive cells,[4],2.88 ± 0.69%
same,percent Bodipy-positive cells,[2],9 ± 1.5%
CC(C)(C(=O)c1cccnc1)c1cccnc1 [Metyrapone],percent Bodipy-positive cells,,13 ± 3.1%
same,percent Bodipy-positive cells,library stock concentration: 8.8 mM,2.63 ± 1.8%
CC(C)(C(=O)c1cccnc1)c1cccnc1,percent Bodipy-positive cells,[2],33.1 ± 9.9%
CCN1CCN(Cc2ccc(NC(=O)c3ccc(C)c(Oc4ccnc5[nH]ccc45)c3)cc2C(F)(F)F)CC1,percent Bodipy-positive cells,library stock concentration: 80 uM,18.4 ± 2.1%
same,percent Bodipy-positive cells,library stock concentration: 400 uM,34.8 ± 5.2%
same,percent Bodipy-positive cells,library stock concentration: 2 mM,72.8 ± 3.8%
same,percent Bodipy-positive cells,[2],99.67 ± 0.47%

# — the supplement of paper PMC9135407
